Laboratory results reported in paper PMC10006225.
No constants are given. Whether binding was seen depends on the method and setting. In cells and extracts the contact can be indirect. Some entries that bind do so weakly or less than the wild type.

By UniProt entry, the sequences of proteins in these tests, tags left out.
UniProt Q04206: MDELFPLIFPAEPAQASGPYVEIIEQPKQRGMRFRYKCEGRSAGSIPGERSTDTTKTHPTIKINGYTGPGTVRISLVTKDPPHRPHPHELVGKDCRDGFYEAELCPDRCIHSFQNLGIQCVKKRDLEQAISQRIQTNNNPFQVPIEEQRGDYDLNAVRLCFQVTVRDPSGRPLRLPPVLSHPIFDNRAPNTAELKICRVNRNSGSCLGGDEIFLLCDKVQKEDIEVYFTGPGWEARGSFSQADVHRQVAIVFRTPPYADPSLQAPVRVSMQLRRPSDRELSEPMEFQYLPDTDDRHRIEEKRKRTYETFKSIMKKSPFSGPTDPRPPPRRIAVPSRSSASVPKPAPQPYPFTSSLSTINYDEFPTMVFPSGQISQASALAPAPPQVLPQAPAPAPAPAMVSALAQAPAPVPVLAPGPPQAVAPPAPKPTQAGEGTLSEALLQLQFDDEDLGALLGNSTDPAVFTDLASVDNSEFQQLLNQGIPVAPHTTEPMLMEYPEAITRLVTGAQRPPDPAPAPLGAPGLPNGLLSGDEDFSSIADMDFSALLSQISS

T1: PTPN14 wild type (plasmid) (UniProt Q15678)
T1 sequence: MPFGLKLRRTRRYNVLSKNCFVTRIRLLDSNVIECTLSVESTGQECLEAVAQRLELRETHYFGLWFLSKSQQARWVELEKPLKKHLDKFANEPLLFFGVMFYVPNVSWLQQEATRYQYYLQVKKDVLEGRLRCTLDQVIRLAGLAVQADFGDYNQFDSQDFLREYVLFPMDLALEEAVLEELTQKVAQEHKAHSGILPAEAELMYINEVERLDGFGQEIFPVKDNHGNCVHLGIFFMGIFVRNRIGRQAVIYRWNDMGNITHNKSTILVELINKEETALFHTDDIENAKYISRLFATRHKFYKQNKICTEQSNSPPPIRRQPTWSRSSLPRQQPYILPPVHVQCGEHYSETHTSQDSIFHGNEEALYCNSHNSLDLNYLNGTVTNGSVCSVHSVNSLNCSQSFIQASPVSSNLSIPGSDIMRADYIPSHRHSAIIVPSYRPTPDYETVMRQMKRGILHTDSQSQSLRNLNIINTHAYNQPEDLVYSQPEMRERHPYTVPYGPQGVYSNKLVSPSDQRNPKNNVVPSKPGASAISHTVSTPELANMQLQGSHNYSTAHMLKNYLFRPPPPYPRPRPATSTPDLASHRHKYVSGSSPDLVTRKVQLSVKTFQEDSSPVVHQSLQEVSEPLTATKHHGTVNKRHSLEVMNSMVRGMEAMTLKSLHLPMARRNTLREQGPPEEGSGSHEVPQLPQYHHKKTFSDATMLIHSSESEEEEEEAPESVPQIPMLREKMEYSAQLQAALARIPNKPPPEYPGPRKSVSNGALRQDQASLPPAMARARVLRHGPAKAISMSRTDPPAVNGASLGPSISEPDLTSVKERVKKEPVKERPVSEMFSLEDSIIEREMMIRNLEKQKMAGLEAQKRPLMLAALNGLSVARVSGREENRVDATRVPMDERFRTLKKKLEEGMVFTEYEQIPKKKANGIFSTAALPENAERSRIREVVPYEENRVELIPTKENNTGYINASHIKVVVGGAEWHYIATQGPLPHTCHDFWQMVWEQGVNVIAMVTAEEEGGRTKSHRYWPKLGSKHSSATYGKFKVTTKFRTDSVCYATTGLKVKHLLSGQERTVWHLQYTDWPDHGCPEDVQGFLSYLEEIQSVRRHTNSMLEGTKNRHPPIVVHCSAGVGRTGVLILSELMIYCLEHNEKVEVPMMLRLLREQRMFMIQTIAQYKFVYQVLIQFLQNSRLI

T2: PTPN14-ΔPTP (deletion the PTP domain, 934–1187 amino acids) (UniProt Q15678)
T2 sequence: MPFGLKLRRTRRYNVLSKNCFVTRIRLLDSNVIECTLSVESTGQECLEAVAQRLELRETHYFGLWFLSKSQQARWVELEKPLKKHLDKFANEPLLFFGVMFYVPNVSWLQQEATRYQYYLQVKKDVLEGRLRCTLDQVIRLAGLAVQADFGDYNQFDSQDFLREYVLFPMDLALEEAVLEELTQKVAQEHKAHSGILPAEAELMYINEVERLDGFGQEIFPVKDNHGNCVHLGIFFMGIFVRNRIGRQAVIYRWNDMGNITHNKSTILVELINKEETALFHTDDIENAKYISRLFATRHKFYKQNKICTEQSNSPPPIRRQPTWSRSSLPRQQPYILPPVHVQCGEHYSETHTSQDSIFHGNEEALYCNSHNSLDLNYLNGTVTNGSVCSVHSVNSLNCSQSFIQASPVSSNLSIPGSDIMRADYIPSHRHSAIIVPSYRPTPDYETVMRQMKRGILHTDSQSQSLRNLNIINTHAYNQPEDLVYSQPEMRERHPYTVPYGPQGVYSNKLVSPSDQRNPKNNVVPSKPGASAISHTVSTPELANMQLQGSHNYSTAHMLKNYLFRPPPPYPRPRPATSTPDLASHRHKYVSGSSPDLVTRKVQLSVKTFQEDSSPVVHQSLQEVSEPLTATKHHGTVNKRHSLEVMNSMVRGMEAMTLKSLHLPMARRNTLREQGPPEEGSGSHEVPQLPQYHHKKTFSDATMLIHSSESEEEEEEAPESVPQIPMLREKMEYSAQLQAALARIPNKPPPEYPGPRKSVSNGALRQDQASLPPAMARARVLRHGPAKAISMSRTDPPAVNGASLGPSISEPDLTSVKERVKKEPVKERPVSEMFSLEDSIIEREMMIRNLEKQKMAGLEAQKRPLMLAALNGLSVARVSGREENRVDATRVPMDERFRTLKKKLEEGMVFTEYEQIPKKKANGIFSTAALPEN

T3: PTPN14 (UniProt Q15678)
T3 sequence: T1 sequence

B1: PTPN14 (protein, UniProt Q15678 1-1187)
chain: T1 sequence

Assays:
[1] = molecular target: T1, PTPN14 wild type (plasmid); experiment: co-IP; Co-IP with PTPN14 wild type, truncated or mutated plasmids, NFkB detected by Western blot; cells and precipitating antibody not named
[2] = molecular target: T2, PTPN14-ΔPTP (deletion the PTP domain, 934–1187 amino acids); experiment: as above
PTPN14 = molecular target: T3, PTPN14; experiment: co-IP; immunoprecipitation with anti-PTPN14 antibody and Western blot for NFkB, and conversely with anti-NFkB antibody and blot for PTPN14; cells not named
[3] = molecular target: NFkB (nuclear factor Kappa B), p65 subunit (UniProt Q04206); experiment: as above

Row | Molecule | binding [1] | binding [2] | binding (PTPN14) | binding [3]
1 | NFkB (nuclear factor Kappa B), p65 subunit (from UniProt Q04206 1-551) | binds | binds | binds | –
2 | B1 | – | – | – | binds
